The whole screen tested about 53,000 sequences, of which about 3,700 (7%) were called active.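 Rule for the calls: active = gene knockdowns whose robust z-score for IL-1 alpha signal is at least 2 or at most -2, so actives lie on both sides; inactive = the rest.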 Some of the results follow.

The nature of the experiment: Components of the Cytosolic LPS Sensing Pathway: Gene Identification via Genome-wide siRNA Screen.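 Note: robust z of the log signal after scaling to non-targeting control siRNA wells of the plate.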 The note with it: RAW264.7 macrophages, IL-1a HTRF, actives lie on both sides, screened at 100 nM (by protocol), cells primed 5 h with Pam3CSK4 first. A digest of the protocol: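 Supernatant IL-1a by HTRF from RAW264.7 cells primed with Pam3CSK4 (5 hours) and transfected with LipidA (24 hour) after 48h siRNA knockdown at 100 nM; cell viability checked with CellTiter-Glo.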
(In TR-FRET formats the signal depends on donor and acceptor labels being close together.)
For the sequence AAGGACGAUCCUGAUUUCATT against Gm5431, the z-score was inactive: 0.828.

Turning to GGUUGGUCCUGAUGAAGAATT against Tnnt2, the z-score was inactive: -0.299.

As to GGAGAUGAUCGACGAAGUATT against Tnnc1, the z-score is inactive: 0.914.

As for CCCUGGUCGUCAUUUUCAATT against Morc2b, the z-score was inactive: 1.54.

Consider GGAAGGCUCAGAGAAAUAATT against Ssr4, for which the z-score was inactive: -0.173.

Take GCUUUUACGGGAGAAAACUTT against Xbp1: the z-score was inactive: -0.395.

ACACUGGAGUGAACAACGUTT against Vmo1: the z-score is inactive: 1.48.

For CCAGAUUUGAGCGAAACCUTT against Myo15, the z-score is inactive: -0.287.

As to GGACAAGAUAGGAGGAGACTT against Abhd16a, the z-score was inactive: -0.776.

For GGCCUGAAUGACACCUUUATT against Anp32e, the z-score was inactive: 0.211.

As for GGUUGCUACUUUUGGCAGGTT against Dusp7, the z-score was inactive: -0.535.

On to GGCAGAACGAACAGAGUUUTT against Nipsnap3b, for which the z-score was inactive: 0.218.

For the sequence GCUACUCUCGCCUGUUACATT against Dcaf12, the z-score was inactive: 0.0053.

In the case of GGCCAAACUGGAUUACUUATT against Tmprss11c, the z-score was inactive: 1.26.

As to GCUGUAAUGACCAGUGUUUTT against Gpam, the z-score is inactive: 0.887.

On to CCCAGUGAAGCAUUUUUUATT against Rpp30, for which the z-score is inactive: -1.63.

In the case of GGGACAAAGUACCUCUCCATT against Proser3, the z-score is inactive: -1.45.

In the case of GGCAUUACAUUUCAAUGAATT against Serpinb12, the z-score is inactive: -0.71.

In the case of GCUUUAAUUCACCAUUAGGTT against Pax9, the z-score is inactive: 0.658.

In the case of GCUGAUGGUCAGAGGAAGATT against Vmn1r177, the z-score is inactive: 0.688.

As to GGGCAGUUUUACAAAUGUUTT against Fbxw8, the z-score was inactive: 0.985.

Take GGUGUUUUCCAACAUCCUCTT against Ccrl2: the z-score was active: 3.06.

On to GGUUUCAAGUGAUGAAUAGTT against Ntf5, for which the z-score was inactive: 0.433.

On to GCCACAUAAGGUUGUUCCCTT against Gamt, for which the z-score was active: 2.9.

In the case of GGAGGCUAUUACUGUUUAUTT against Fam107b, the z-score was inactive: 0.601.

On to GUUCUUCUCUGUUGGUGCUTT against Vmn1r24, for which the z-score was active: -2.12.

GCACUGUGAGUGGAUACUUTT against Slc5a3: the z-score was inactive: 0.13.

For the sequence GGCAAGAUCACCUUCUGCATT against Psmd4, the z-score is inactive: 0.152.

Turning to GAUGCACUUCGAAUCAGGGTT against Uchl3, the z-score is inactive: -0.082.

For the sequence CCUUCCCUUAAAUGGAACCTT against Slc9a1, the z-score is inactive: 1.63.

Regarding GGACACUAUGACGGAAGUATT against Apoe, the z-score was inactive: -1.13.

For GGGAAAAUGCCUAUCGAUUTT against Meis1, the z-score is inactive: 0.834.

On to GGUCACUGUUUCCCUAGACTT against Prss33, for which the z-score was inactive: -1.57.

For AUAAAGAUGUCAGUGAUGCTT against Olfr951, the z-score was inactive: -1.43.

On to GGUUAAAAUGCCAUAACAATT against Ksr1, for which the z-score was inactive: -1.26.

Take GGACAAAAGAUUCUUCAUCTT against Map1b: the z-score was active: 2.93.

With GGAAAAUUUAUGCAGUGGATT against Carm1, the z-score was inactive: -0.264.

Consider GAUGCCCAAUGUGCAAAUGTT against Defa-rs12, for which the z-score is inactive: 1.06.

In the case of CCAGAUGCUAAAUCACUACTT against Ttll8, the z-score is inactive: -0.127.

Regarding GGUCUUUUUUCCUUUGUUCTT against Ogg1, the z-score was inactive: 0.187.

With GGAUCGUGAUCCAUCAGAGTT against Pcgf3, the z-score is inactive: -0.152.

For GCAUCUACCACACAAUGGCTT against Wdfy1, the z-score was inactive: 0.787.

Consider GCUCAAAACGCACGUGAAGTT against Get1, for which the z-score is inactive: 0.17.

As to GGGAAAUGAACCUCUCUGATT against Pbld2, the z-score was inactive: -0.916.

Consider GCUGCCUCUAUUUCAGUUCTT against Fbxo27, for which the z-score was inactive: -0.253.

On to GGUCAUGUCCGAGUACAACTT against Stx1a, for which the z-score is inactive: 1.21.

On to GGAAUAUUUUGCUUGUGUGTT against Dnmt3a, for which the z-score was inactive: -0.925.

On to GGAAACUGCAUUCAAGCCATT against Apod, for which the z-score is inactive: -0.191.

Take GCUCUCUGCACCAGAGUAUTT against Mapk15: the z-score is inactive: -0.993.

Turning to GCAAGUAGUUAGCUCAGGGTT against Gabpb1, the z-score is inactive: -0.752.

For GGUGGUAAUAGACAAACACTT against Ctdnep1, the z-score was inactive: -0.749.

With “GUUCUCAAGUAUCCCAGGCTT against 1110006O24Rik”, the z-score was inactive: -0.661.

As to GCGAACCCAUCAGUGAAGUTT against Dpp10, the z-score is inactive: 1.6.

GGGUGAGAUAGGAAAGUGGTT against Rab43: the z-score was inactive: -0.111.

GGAAUUUGGAGCAAUUGGATT against Efcab14: the z-score was inactive: -0.0212.

Regarding GCUGGAUCAGCUAGCAAAATT against Cpa1, the z-score was inactive: 0.0912.

For GGUUGAGAAGAAGAAUGGATT against Thap4, the z-score was inactive: -0.382.

With GGACUAUUUGGAAACCUCCTT against Olfr1366, the z-score is inactive: -0.304.

With GGAAAUUGUUGUUUCCCGUTT against Sf3b3, the z-score is inactive: -1.45.

With GGAAAAUACACAGAGAUAUTT against Stk3, the z-score is inactive: -0.389.

In the case of CGAAACCUCUAAGAAGAUATT against Pole, the z-score was inactive: -0.264.

As for CGCCUUGCUAGUUUAAUGATT against Matr3, the z-score was inactive: 0.905.

Take GGAUAACCGUAUUAAUUUCTT against Gm2a: the z-score was inactive: 0.709.

Turning to GCUCUAAGGAACAUGUAAATT against Recql, the z-score was inactive: -0.122.

Regarding GGAAAUCAUAUAUGCAAAGTT against Dpp4, the z-score was inactive: -0.366.

In the case of GGCUGUCCAACAAGCAGAGTT against Plekhm3, the z-score was inactive: 0.163.

In the case of GGUAAUUUCUUACCAAGGATT against Gabpa, the z-score is inactive: -0.912.

With GGAUGUUGUUUGGGCUUUUTT against Olfr140, the z-score is inactive: 0.332.
